Assay results: paper PMC4891030
These are yes or no findings as the source states them, for the method shown. Binding seen in cells or lysates may run through a third protein. Some results given as binding are weak or reduced against the parent protein; the word gives no strength.

Amino acid sequences for entries named in this document (tags omitted). Residues count along the entry.
UniProt P11021, residues 19-654: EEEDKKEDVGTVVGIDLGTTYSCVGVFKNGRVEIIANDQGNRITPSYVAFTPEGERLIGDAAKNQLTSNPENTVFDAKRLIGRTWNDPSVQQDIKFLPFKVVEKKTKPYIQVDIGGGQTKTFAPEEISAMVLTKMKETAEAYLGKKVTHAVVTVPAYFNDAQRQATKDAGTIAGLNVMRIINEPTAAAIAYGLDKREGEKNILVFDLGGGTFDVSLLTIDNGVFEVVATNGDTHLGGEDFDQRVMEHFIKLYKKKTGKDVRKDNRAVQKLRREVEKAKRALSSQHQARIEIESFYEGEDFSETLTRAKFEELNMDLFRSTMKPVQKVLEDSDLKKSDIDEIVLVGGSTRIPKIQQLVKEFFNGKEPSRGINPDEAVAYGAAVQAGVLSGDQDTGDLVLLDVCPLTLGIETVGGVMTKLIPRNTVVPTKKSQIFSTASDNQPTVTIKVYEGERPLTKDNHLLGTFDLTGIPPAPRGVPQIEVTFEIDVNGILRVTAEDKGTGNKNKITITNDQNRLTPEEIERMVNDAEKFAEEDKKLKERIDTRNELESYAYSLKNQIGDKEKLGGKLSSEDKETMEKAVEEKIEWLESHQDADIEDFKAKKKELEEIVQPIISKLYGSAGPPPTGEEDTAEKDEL

Target: epidermal growth factor receptor (human (endogenous in H1299)) (UniProt P00533)
Assay: co-IP; reciprocal co-immunoprecipitation of endogenous EGFR and BIP from lysates of MIIP-HA-overexpressing or control H1299 cells; lysis in 50 mM Tris-HCl pH 7.5, 0.15 M NaCl, 1% Nonidet P-40; overnight with primary antibody, Protein G Plus-Agarose, four washes; blank protein G beads as negative control

BIP (from UniProt P11021 19-654)
binding: binds
